{"sequences": {"note": "Amino acid sequences for entries named in this document (tags omitted).", "UniProt Q61501": "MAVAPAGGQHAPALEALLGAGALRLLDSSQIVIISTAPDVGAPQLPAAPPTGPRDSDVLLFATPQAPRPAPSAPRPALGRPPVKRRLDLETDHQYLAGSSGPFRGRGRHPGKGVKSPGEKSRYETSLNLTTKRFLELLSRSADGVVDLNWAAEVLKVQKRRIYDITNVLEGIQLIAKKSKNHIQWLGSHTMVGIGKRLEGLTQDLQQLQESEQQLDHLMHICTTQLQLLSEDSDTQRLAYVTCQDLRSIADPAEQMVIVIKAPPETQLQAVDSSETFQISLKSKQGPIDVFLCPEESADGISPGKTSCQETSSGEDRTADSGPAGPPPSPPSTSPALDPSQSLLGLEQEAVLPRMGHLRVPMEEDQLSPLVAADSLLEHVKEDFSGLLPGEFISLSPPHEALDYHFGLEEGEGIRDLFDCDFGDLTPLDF"}, "source": "paper PMC11448500", "target": "T1, KDM2A (mouse (endogenous in c-KIT+ spermatogonia of mouse testes)) (UniProt P59997)", "T1 sequence": "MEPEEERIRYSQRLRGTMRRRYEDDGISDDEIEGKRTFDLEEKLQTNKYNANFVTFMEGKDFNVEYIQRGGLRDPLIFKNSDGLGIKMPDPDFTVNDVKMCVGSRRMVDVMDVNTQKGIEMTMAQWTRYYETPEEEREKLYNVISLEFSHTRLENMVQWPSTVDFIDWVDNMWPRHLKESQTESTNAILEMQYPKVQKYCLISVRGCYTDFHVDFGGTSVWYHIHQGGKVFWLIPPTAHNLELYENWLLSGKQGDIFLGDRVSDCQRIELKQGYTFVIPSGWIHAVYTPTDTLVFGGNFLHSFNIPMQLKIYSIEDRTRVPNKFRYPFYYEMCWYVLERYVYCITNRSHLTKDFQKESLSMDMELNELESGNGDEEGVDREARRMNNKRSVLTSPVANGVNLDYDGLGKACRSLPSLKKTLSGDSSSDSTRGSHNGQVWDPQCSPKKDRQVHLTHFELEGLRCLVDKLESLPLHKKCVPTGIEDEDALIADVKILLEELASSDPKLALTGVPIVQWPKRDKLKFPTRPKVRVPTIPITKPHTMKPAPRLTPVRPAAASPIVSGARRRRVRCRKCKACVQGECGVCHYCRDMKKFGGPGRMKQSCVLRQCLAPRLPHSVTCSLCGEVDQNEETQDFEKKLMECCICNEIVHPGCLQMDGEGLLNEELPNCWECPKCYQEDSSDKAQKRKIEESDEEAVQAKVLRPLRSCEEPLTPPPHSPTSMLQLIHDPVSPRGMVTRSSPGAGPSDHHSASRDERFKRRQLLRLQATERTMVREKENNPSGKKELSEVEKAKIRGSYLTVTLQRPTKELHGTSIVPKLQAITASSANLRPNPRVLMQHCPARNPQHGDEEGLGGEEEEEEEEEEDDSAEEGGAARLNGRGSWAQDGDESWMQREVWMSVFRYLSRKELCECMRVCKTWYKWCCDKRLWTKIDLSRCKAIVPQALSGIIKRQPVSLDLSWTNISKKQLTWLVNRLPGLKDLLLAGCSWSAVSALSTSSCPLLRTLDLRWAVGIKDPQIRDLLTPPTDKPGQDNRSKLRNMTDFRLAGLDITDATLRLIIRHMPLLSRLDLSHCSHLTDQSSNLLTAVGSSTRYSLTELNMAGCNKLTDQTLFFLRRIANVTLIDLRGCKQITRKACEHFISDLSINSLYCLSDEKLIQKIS", "assay": "affinity purification with mass spectrometry; IP with the KDM2A antibody from lysate of purified c-KIT+ germ cells, protein A/G magnetic beads, elution at 70 °C, LTQ Orbitrap Velos", "note": "These are yes or no findings as the source states them, for the method shown. In cells and extracts the contact can be indirect. A yes stands for co-enrichment or nearness to the bait. Other partners may have been found.", "data": [{"substance": "E2F1 (from UniProt Q61501 1-430)", "values": [{"measurement": "binding", "value": "binds"}]}, {"substance": "HCFC1", "values": [{"measurement": "binding", "value": "binds"}]}]}
